This experiment deals with regulatory-associated protein of mTOR (raptor) (mouse (endogenous in 3T3-L1)) (UniProt Q8K4Q0). Nature of the experiment: co-IP; immunoprecipitates against raptor from 3T3-L1 cell lysates, western blotting for DEPTOR; cells undifferentiated or differentiated, in the absence or presence of 300 uM C8-PA. A general note: In western blotting, separated proteins are transferred to a membrane and probed.

Amino acid sequences for entries named in this document (tags omitted).
UniProt Q8K4Q0: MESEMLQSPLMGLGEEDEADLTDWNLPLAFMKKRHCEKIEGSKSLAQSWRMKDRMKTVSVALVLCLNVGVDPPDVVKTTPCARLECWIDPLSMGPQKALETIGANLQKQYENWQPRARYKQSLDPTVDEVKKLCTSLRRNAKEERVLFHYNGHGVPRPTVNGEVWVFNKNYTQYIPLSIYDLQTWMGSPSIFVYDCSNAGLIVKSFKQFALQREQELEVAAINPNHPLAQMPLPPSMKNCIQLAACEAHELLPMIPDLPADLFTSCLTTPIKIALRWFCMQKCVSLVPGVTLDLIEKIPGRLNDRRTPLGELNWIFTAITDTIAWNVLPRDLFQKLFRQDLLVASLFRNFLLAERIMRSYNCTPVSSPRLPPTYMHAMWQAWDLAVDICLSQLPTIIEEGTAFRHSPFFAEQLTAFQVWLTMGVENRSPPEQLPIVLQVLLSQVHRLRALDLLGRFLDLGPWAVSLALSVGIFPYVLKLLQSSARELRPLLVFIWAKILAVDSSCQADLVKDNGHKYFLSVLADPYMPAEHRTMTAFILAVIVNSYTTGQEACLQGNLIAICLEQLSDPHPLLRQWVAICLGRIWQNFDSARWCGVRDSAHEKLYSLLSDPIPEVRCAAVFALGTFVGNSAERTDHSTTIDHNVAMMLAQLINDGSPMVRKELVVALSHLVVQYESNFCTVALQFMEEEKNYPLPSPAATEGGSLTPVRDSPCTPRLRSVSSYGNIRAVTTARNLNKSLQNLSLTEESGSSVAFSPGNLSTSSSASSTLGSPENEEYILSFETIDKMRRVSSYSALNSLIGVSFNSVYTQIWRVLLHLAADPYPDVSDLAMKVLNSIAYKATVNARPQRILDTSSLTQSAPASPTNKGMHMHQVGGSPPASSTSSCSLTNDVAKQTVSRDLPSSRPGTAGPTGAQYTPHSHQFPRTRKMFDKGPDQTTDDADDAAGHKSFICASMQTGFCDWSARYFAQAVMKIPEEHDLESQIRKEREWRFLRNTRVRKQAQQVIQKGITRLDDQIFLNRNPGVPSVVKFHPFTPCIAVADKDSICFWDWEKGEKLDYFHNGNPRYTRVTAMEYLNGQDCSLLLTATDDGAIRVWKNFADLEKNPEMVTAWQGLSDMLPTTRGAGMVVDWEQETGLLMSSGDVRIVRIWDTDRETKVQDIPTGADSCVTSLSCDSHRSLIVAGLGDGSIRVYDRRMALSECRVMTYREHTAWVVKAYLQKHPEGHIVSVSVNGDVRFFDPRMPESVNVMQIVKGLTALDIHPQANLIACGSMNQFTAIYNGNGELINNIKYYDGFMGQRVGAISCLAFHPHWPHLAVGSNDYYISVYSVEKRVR
UniProt Q570Y9: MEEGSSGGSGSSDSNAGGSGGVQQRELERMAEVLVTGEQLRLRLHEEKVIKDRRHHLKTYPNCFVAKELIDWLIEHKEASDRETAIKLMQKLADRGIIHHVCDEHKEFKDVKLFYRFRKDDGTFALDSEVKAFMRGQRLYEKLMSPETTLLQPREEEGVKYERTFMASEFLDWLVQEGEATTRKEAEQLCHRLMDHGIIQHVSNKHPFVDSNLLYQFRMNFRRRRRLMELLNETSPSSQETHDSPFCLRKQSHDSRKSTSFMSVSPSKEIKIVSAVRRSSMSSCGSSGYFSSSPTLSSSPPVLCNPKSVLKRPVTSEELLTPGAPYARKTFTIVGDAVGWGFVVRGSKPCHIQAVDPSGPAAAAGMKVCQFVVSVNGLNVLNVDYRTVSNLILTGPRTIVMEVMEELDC

No constants are given. Whether binding was seen depends on the method and setting. In cells and extracts the contact can be indirect. Some entries that bind do so weakly or less than the wild type.

For “DEP domain-containing mTOR-interacting protein (DEPTOR) (from UniProt Q570Y9 1-409)”, the binding entry is listed as “binds”.

(Values after article PMC5181839.)
